The other results are listed elsewhere or left out.
B1: il2ra_site1_3nfp_normal_mot_HHH_b1_00042_af2_000000196_0001_42_57_H_._HHH_b2_07681_0001_0000900023_0000001_0_af2pred_0001_af2pred_1 (protein)
chain: SSSSDEASKEAEELIREIQRLLKEGNPEEARKLLEELEELAERLNDPILKRLVEILERRINSSSS
B2: il2ra_site2_3nfp_sap_17_mot_9f76941e31d6374ac6cec9652f83b6d3_0001_af2_000000073_0001_37_65_H_._0edc931bf049704647aa1156905c945d_0001_1_0001_0000300023_0000001_0 … (protein)
chain: SSSSKAEEYVEAAIELAKLALEAGDPEAARSSLEAAKQAAEDNRDPELERLVEELEEELNSSSSS
B3: il2ra_site1_1z92_normal_mot_HHH_b1_01250_000000104_0001_1_17_H_._9d722f4281fe2ab0f1894ca7efdbd281_0001_1_af2_0001_0000600030_0000001_0 (protein)
chain: DEEIRKVDRLVLRNPRAAELFLELMKLRWKGDPRFEEVEEELEEVLKKLGIPPEDVELILKVANQ
B4: il2ra_site1_3nfp_sap_17_mot_HHH_b1_06312_000000077_0001_1_18_H_._HHH_b2_05980_af2_0001_0000400032_0000001_0_0001 (protein)
chain: SSSSDVEERVKELLEEAKELLEEGNPQEAARVLHEAWRLAAEANDPELSQAVYRVMREIAHSSSS
B5: il2ra_site1_2b5i_normal_mot_HHH_b2_04910_000000118_0001_1_19_H_._HHH_b1_00806_af2_0001_0000300023_0000001_0_af2pred_0001_af2pred (protein)
chain: SSSSDEEKEEAHKLFEEANELARNGNPEEARKALEEAEKLAEEGNSPSLLKSIRAALRLAQSSSS
B6: il2ra_site2_3nfp_sap_19_mot_HHH_b1_00660_af2_000000199_0001_40_57_H_._HHH_b2_04465_0001_0000500014_0000001_0_0001 (protein)
chain: SSSSDEEVEELKKEIEELIKEGDTYEAMQLLEELLKLALELNDPEADKAVLELYKLINDRYSSSS
B7: il2ra_site2_3nfp_sap_30_mot_HHH_b1_02173_000000190_0001_1_18_H_._c1e259e16b19a3635eeea4582300f2e1_0001_af2_0001_0001400011_0000001_0_0001_af2pred_0001_af2pred (protein)
chain: SSSSSEEEKVEKIFREAEELLERGNPEEARRLLLRLLEELRELGDTQLILRIAELALKVLGSSSS
B8: il2ra_site2_2erj_normal_mot_HHH_b2_05722_000000033_0001_22_38_H_._HHH_b1_00927_0001_0001600018_0000001_0 (protein)
chain: SSSSSEEEEIEELFRKAEELLREGNPEEAEEVLREAFERAARLGNHELAAELIKLAAELFSSSSS
B9: il2ra_site2_3nfp_normal_mot_HHH_b2_00615_000000276_0001_1_15_H_._HHH_b2_07007_0001_0000900113_0000001_0 (protein)
chain: SSSSDNLEAWELLQEAVHLAREGNPEEARKLLEEAEEIAKKADSRVLRRSIEDVKELVERLSSSS
B10: il2ra_site2_2erj_normal_mot_90f6a21de4ed711cb697bb9f61d9c40c_0001_af2_000000135_0001_36_50_H_._HHH_b1_07609_0001_0000400038_0000001_1_af2pred_0001_af2pred (protein)
chain: SSSDLEEELRELVEELVEELGLSEEAKRWLELLAEELVKQGASPELAREQLKLSAELAHEALSSS
B11: il2ra_site1_3nfp_normal_mot_HHH_b2_02066_af2_000000034_0001_1_16_H_._HHH_b1_04414_0001_0000100003_0000001_0 (protein)
chain: SSSSNEELLELVEEIWELSREGDDEQAREVLEEAKRLAEELGSKAARIFLERLEKLLRLKSSSSS
B12: il2ra_site2_2erj_normal_mot_HHH_b2_05804_000000098_0001_44_58_H_._HHH_b2_01306_af2_0001_0001100019_0000001_0 (protein)
chain: SSSSDEEWEEVAELLVEALELYRNGNPEEAKKVLEEAERIAEELNDEFLKRYVEFARRAASSSSS
B13: il2ra_site1_2b5i_normal_mot_f5ff40796168375b462bec8614a1db4a_0001_1_000000138_0001_53_65_H_._HHH_b1_07617_0001_0000100010_0000001_0_af2pred_dldesign_0_af2pred (protein)
chain: SSSSDLKEDVEALIKKAKELYEEGKKEEAKKLLILARRIAKKAKDEETLKKIDELLKEIEESSSS
B14: il2ra_site1_1z92_sap_12_mot_HHH_b2_00969_af2_000000010_0001_43_57_H_._HHH_b1_02957_0001_0000200009_0000001_0_0001_af2pred_0001_af2pred (protein)
chain: SSSSSDEAKRLSRFIAELAIEFKLTLEDLRELNELALELLQRGYSEEEIEELLHEEAKRLSSSSS
B15: il2ra_site1_3nfp_sap_13_mot_HHH_b2_00334_000000219_0001_1_18_H_._a7b25d948053501ad451c9618b38fcae_0001_0001_0000300026_0000001_0_0001_af2pred_0001_af2pred (protein)
chain: SSSSSDEFREEVEELLEEAKRIEDVREASKLLREALKLALEGDDEEAWKLVEKVIRELARSSSSS
B16: il2ra_site1_2b5i_normal_mot_HHH_b1_02271_000000068_0001_1_16_H_._HHH_b2_04633_af2_0001_0000400024_0000001_0_af2pred_dldesign_0_af2pred (protein)
chain: SSSSSSDLEALEARARELAAAGKRREALELLEKAYKEAAAAGDEEAEERLYELAKELKSSSSSSS
B17: il2ra_site2_3nfp_normal_mot_HHH_b2_05513_000000198_0001_20_37_H_._52c50354b804bec8c3157ba16786ada3_0001_0001_0000200004_0000001_0 (protein)
chain: DELEERLRRSAELAGNPEDAVIFFIALLEVELGDPEEAIELAEEVAKALGDPELERIIEEILHAP
B18: il2ra_site1_2b5i_sap_9_mot_HHH_b1_01419_af2_000000080_0001_42_53_H_._HHH_b1_01907_af2_0001_0000100002_0000001_0_0001_af2pred_0001_af2pred_1 (protein)
chain: SSSSDEVLEEILRLFREASELFRKGNHEEARKLLEEALELAEEFNDEVAFRDVRFMLEKLNSSSS
B19: il2ra_site1_3nfp_normal_mot_46d73865503fbedcaf0f3a45445d594c_0001_af2_000000151_0001_1_12_H_._HEEHE_1219_af2_0001_0000300007_0000001_0 (protein)
chain: DDRRVVERLVERAARSAGVENVEVTIHNGTLHVTVEGDDEAARAVKEAVEDLAERLGISVEYSHK

What follows are binders tested against il2ra, P01589 (assay: yeast display titration).

Apparent Kd, inactive:
B1 no binding seen
B2 no binding seen
B3 > 1710 nM
B4 no binding seen
B5 > 1500 nM
B6 no binding seen
B7 no binding seen
B8 no binding seen
B9 no binding seen
B10 no binding seen
B11 no binding seen
B12 no binding seen
B13 no binding seen
B14 no binding seen
B15 no binding seen
B16 no binding seen
B17 no binding seen
B18 no binding seen
B19 no binding seen

Quoted from above (two entries):
Apparent Kd, inactive:
B1 no binding seen
B2 no binding seen
